Our source for the binding values is article PMC8285421.

Sequences of proteins named here, by UniProt entry; tags and fusion partners are left off.
UniProt P16390: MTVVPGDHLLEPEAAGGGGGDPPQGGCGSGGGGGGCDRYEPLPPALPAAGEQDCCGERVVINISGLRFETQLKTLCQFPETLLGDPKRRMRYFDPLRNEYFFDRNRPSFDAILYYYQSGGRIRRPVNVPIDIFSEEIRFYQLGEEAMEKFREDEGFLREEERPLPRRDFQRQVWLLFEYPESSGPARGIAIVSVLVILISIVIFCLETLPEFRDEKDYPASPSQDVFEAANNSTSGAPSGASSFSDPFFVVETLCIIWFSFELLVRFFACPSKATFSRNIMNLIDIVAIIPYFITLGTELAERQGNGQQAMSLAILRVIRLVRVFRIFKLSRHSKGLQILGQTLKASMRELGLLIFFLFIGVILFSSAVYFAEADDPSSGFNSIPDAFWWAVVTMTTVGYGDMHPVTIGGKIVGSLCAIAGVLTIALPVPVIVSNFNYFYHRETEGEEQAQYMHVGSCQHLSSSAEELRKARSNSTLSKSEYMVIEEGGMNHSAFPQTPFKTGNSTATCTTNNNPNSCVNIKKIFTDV
UniProt P15384: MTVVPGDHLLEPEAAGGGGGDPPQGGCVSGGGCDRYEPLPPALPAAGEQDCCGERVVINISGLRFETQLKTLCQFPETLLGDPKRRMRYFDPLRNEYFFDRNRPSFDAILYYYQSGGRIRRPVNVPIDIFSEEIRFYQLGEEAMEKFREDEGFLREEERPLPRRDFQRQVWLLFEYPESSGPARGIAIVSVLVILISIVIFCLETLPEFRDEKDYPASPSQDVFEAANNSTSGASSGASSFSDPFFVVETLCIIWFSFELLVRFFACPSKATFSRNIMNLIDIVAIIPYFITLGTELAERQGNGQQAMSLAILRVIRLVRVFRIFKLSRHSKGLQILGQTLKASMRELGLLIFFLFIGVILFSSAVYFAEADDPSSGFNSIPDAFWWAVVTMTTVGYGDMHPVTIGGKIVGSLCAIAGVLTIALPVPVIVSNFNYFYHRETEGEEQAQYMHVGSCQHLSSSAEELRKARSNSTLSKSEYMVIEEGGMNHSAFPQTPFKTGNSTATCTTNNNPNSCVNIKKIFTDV

The target of assay [1] is T1, KCNE4 (regulatory subunit), endogenous in CY15 dendritic cells (mouse (endogenous in CY15)) (UniProt Q9WTW3).
T1 sequence: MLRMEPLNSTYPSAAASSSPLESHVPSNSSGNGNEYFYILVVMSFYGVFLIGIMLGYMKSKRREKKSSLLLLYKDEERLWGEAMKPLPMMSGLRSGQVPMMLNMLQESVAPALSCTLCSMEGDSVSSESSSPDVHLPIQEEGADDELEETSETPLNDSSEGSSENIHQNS
Kind of assay: co-IP; CY15 dendritic cell lysate (1% Triton X-100, 150 mM NaCl, 50 mM HEPES pH 7.4), 2 mg protein; immunoprecipitated with anti-Kv1.3 or anti-KCNE4 and protein G-Sepharose, immunoblotted for Kv1.3 and KCNE4; cells untreated or treated with LPS (100 ng/ml) for 24 h. Background: A western blot detects proteins with antibodies after separation by electrophoresis.

Assay [2] has as its target Kv1.3 (voltage-dependent potassium channel), endogenous in CY15 dendritic cells (mouse (endogenous in CY15)) (UniProt P16390). Described as above.
For assay [3], the target named is Kv1.3YFP (rat (printed as rKv1.3)) (UniProt P15384). Kind of assay: FRET or BRET; FACS-based FRET in living Jurkat T cells cotransfected with CFP and YFP fusions; CFP donor excited at 405 nm, FRET signal with a 525/50 filter; FRET-positive cells gated against cells cotransfected with CFP and YFP. For orientation: Bioluminescence resonance energy transfer reports proximity on the nanometre scale.

These are yes or no findings as the source states them, for the method shown. In cells and extracts the contact can be indirect. Some results given as binding are weak or reduced against the parent protein; the word gives no strength.

In the case of “Kv1.3 (voltage-dependent potassium channel), endogenous in CY15 dendritic cells (from UniProt P16390 1-528)”, the binding entry in assay [1] is on record as “binds”.

B1: KCNE4 (regulatory subunit), endogenous in CY15 dendritic cells (protein, UniProt Q9WTW3 1-170)
chain: MLRMEPLNSTYPSAAASSSPLESHVPSNSSGNGNEYFYILVVMSFYGVFLIGIMLGYMKSKRREKKSSLLLLYKDEERLWGEAMKPLPMMSGLRSGQVPMMLNMLQESVAPALSCTLCSMEGDSVSSESSSPDVHLPIQEEGADDELEETSETPLNDSSEGSSENIHQNS
For the molecule B1, the binding result in assay [2] is “binds”.

B2: KCNE4CFP (protein, UniProt Q9WTW3 1-170)
chain: MLRMEPLNSTYPSAAASSSPLESHVPSNSSGNGNEYFYILVVMSFYGVFLIGIMLGYMKSKRREKKSSLLLLYKDEERLWGEAMKPLPMMSGLRSGQVPMMLNMLQESVAPALSCTLCSMEGDSVSSESSSPDVHLPIQEEGADDELEETSETPLNDSSEGSSENIHQNS
Consider B2, for which, in assay [3], the binding entry was “binds”.
